Assay results: paper PMC7431425
These are yes or no findings as the source states them, for the method shown. In cells and extracts the contact can be indirect. Sequences can lack the tags named with a protein.

The chains behind the UniProt entries cited, without tags or fusion partners. Where a name states a change or a piece, a line headed by the entry shows the natural chain unless it says otherwise.
UniProt P18824: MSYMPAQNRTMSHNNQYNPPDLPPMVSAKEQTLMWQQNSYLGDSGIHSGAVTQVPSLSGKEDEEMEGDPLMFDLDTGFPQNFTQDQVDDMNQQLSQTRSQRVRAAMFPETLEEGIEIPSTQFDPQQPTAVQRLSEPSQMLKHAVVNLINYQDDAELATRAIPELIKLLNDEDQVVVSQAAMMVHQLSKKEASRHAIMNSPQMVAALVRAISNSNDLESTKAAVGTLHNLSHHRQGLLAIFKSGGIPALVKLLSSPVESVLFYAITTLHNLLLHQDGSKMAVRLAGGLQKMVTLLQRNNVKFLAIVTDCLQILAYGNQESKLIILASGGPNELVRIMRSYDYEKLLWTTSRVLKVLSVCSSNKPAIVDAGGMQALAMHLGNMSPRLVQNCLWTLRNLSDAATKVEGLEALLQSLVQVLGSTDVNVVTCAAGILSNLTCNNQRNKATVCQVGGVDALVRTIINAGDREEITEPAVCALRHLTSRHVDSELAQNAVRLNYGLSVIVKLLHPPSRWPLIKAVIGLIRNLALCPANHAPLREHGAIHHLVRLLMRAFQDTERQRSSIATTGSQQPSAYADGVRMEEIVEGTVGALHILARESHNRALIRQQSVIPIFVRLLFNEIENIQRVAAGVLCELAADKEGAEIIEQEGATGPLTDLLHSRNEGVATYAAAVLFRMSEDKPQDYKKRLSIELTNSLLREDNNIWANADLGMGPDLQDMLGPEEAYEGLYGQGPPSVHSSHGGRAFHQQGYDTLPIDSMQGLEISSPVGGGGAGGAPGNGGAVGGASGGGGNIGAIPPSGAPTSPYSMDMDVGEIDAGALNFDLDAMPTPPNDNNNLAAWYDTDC

Molecular target: T1, GST-Klp64D^tail (Drosophila) (UniProt Q9VRK9)
T1 sequence: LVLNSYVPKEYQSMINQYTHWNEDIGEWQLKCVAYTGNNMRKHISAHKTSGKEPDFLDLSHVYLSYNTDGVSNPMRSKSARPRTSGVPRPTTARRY
Test: pull-down; GST fusion protein on blocked glutathione Sepharose 4B beads incubated with lysates containing MBP-fusion proteins O/N at 4 °C; washes in 20 mM Tris pH 7.5, 150 mM NaCl, 0.5 mM EDTA, 10% glycerol, 0.1% Triton X 100, 1 mM DTT; Western blot with anti-GST or anti-MBP; only the target …

With Arm^ΔAR2 (from UniProt P18824) the binding was “no binding”.
